Results on one substance are retold here after publication doi:10.1101/2020.09.07.286633.

Sequences of proteins named here, by UniProt entry; tags and fusion partners are left off.
UniProt Q9GZV5: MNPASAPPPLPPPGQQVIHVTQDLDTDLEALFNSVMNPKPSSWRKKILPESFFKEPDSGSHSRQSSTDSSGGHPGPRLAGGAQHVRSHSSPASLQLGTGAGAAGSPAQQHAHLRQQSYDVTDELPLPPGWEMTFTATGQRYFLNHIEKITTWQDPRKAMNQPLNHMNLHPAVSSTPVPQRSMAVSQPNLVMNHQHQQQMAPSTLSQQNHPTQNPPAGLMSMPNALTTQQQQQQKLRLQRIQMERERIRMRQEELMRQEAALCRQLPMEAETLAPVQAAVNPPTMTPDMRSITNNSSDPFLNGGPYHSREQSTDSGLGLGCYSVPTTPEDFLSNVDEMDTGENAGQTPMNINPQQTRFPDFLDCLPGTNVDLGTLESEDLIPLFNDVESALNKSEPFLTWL
UniProt Q8NI35: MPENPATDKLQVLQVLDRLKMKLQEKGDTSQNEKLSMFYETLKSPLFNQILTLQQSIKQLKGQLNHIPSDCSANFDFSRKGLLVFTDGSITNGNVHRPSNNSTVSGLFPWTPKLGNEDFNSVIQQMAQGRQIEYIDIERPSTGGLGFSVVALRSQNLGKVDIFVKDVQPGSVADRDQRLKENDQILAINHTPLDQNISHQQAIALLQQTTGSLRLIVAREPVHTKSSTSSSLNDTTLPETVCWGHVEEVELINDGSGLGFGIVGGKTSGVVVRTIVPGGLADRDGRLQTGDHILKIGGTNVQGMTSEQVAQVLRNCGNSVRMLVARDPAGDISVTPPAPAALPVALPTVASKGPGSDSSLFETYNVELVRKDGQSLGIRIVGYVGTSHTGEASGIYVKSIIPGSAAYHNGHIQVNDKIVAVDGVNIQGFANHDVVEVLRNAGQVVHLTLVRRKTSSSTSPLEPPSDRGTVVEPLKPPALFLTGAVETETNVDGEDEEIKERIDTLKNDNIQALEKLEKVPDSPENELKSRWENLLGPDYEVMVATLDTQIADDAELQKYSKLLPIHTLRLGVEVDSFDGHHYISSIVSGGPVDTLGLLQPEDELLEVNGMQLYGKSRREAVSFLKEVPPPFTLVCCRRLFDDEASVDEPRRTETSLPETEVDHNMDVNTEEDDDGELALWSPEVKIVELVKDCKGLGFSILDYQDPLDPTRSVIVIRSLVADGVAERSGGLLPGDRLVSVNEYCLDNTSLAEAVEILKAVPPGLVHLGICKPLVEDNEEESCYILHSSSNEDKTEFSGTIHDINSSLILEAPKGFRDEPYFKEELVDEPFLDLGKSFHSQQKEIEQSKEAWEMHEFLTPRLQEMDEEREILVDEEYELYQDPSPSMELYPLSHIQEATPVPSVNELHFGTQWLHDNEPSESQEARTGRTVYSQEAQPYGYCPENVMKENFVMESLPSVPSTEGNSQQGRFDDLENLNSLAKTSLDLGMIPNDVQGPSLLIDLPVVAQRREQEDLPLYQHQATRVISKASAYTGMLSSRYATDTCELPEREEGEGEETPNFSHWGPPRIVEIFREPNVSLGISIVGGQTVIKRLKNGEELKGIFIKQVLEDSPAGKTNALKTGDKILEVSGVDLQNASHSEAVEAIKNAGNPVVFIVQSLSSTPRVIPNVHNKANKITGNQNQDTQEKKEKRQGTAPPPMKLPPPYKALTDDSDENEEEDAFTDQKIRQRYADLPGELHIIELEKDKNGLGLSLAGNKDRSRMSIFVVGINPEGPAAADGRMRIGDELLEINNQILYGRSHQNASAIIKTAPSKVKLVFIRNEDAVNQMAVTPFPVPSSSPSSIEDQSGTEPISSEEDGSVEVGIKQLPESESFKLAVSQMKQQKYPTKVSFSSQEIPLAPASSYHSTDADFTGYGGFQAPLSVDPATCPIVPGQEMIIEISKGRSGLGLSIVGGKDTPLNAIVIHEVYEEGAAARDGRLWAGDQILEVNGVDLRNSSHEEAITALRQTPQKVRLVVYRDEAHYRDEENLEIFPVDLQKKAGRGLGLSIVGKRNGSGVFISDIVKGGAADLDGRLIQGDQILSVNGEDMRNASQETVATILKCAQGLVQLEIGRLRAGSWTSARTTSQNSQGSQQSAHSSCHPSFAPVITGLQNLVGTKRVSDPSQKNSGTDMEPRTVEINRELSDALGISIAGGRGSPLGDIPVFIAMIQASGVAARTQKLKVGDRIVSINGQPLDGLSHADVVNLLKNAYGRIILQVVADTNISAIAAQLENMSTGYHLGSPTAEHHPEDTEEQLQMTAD

No constants are given. Whether binding was seen depends on the method and setting. Binding seen in cells or lysates may run through a third protein. Here binding means that the protein was enriched with, or labelled near, the bait; the list need not be complete.

In this assay the target is BirA*-TAZ (full-length) (UniProt Q9GZV5). Kind of assay: proximity labelling.

For PATJ (from UniProt Q8NI35 1-1801), the binding entry is listed as “binds”.
